Where “and” joins values, the source holds several entries; their conditions need not be identical. Equal entries are not always repeated. Screen size: about 390,000 compounds; about 820 (0.21%) were called active. The shares of active, inactive and inconclusive entries below differ from those in the screen. Calls come from the whole dose curve; as a rule, active = well fitted inhibition curve with a large enough effect; inconclusive = small, poorly fitted or top-dose-only effect, or another doubt; inactive = no such curve, though single readings can be large or run the other way. A potency beside an inconclusive call is a rough fit, not a confirmed value.
Target: Histone acetyltransferase KAT2A (Homo sapiens) (UniProt Q92830)
Test: qHTS Assay for Inhibitors of GCN5L2
Details: GCN5L2 HAT assay, ThioGlo1 CoA-SH fluorescence; activity change, negative = inhibition: at 58.9 µM (top of the series) unless noted
Outline: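 Titration-based screen in which CoA formation is detected via maleimide probe ThioGlo1 (50uM) turning fluorescent on thiol reaction; substrates H3(1-25) 75uM and acetyl-CoA 70uM, GCN5L2 20nM, 20 min incubation at room temperature.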
% is set by controls: 0 for no effect and ±100 for the full control effect; potency is the fitted concentration of half-maximal effect.

The chains behind the UniProt entries cited, without tags or fusion partners.
UniProt Q92830, whole entry, looked up: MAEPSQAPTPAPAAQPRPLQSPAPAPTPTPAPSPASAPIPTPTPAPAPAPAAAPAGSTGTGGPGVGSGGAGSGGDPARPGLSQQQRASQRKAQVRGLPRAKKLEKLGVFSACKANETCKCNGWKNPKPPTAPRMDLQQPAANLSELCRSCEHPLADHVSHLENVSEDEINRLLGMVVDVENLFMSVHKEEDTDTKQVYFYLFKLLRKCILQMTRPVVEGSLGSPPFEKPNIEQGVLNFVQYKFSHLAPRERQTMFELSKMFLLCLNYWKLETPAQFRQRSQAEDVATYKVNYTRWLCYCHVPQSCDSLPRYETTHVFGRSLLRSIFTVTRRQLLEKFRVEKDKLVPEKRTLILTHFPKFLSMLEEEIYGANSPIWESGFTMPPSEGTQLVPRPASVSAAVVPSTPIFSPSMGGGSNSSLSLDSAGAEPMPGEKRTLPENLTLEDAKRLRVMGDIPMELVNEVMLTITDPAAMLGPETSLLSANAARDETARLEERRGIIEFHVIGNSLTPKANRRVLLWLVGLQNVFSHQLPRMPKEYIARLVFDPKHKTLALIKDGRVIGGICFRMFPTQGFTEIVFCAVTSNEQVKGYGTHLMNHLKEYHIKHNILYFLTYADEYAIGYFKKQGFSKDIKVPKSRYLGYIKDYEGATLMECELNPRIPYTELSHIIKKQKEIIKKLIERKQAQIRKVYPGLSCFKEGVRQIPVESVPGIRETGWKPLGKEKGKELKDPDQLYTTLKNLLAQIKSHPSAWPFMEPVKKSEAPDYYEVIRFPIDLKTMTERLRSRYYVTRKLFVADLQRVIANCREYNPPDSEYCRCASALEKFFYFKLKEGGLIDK

| Structure (SMILES) | Potency | activity change, negative = inhibition |
| --- | --- | --- |
| CCC(Oc1ccccc1)C(=O)Nc1nc2c(s1)C(=O)CC(C)(C)C2 (stereo not drawn) | inconclusive: 39.8 µM [inhibitor, single point] | – |
| CCn1cc(C(=O)NCCC(C)C)c(=O)c2cc(F)c(N3CCN(C(=O)c4ccco4)CC3)cc21 | inconclusive: 35.5 µM [inhibitor, single point] | – |
| CC(COc1ccc(/C=C/c2ccccc2)cc1)[N+](C)(C)C (stereo not drawn) | inconclusive: 39.8 µM [inhibitor, single point] and inconclusive: 17.8 µM [inhibitor, partial curve, poor fit] | – |
| Brc1ccc(-c2nc3ncccn3c2Nc2ccc3c(c2)OCCO3)o1 | – | inactive: -5.48% |
| Cc1[nH]c(C)c(S(=O)(=O)NCCc2ccccc2)c1C(=O)N1CCCCC1 | inconclusive: 17.8 µM [inhibitor, partial curve, poor fit] | – |
| Cc1cccc2c1NC(=O)C21N2CCCC2C(C(=O)c2ccc3ccccc3c2)C12C(=O)Nc1ccccc12 (stereo not drawn) | inconclusive: 22.4 µM [inhibitor, partial curve, poor fit] | – |
| CC1=C(C#N)C(/C=N/OCc2ccc(F)cc2Cl)CC(=O)N1 (stereo not drawn) | – | inactive: 0.0456% |
| Cc1ccc(S(=O)(=O)N2[C@@H](c3cccc(Cl)c3)C(C(=O)O)=CC[C@H]2c2cccc(C)c2)cc1 | inconclusive: 28.2 µM [inhibitor, single point] | – |
| c1ccc(C2CN3CCSC3=N2)cc1 (stereo not drawn) | inactive | – |
| Cc1ccc(S(=O)(=O)NN/C(=N/S(=O)(=O)c2ccccc2)c2ccccc2)cc1 | – | inactive: 1.78% |
| CN(C)S(=O)(=O)N(CC(=O)Nc1ccc(S(=O)(=O)N2CCCC2)cc1)c1ccccc1 | inconclusive: 0.891 µM [inhibitor, full curve, poor fit] | – |
| CCc1ccc(-c2cc(C(=O)O)c3ccccc3n2)s1 | inconclusive: 39.8 µM [inhibitor, single point] | – |
| COCCNc1ncnc2ccc(-c3ccccc3C)cc12 | inconclusive: 35.5 µM [inhibitor, partial curve] | – |
| CCOC(=O)N1CCN(C2=Nc3cccc4cccc2c34)CC1 | inconclusive: 0.794 µM [inhibitor, single point] | – |
| CC(C)(Oc1ccc(Cl)cc1)C(=O)NCC(c1ccco1)N1CCCCC1 (stereo not drawn) | – | inactive: -6.2% |
| C=C(C)COc1ccc(-c2nc(N)ncc2-c2ccc(OC)c(OC)c2)c(O)c1 | inconclusive: 28.2 µM [inhibitor, single point] | – |
| Cc1ccc(-c2nn(C)c(=O)c3ccccc23)cc1CNC(=O)c1ccco1 | inconclusive: 39.8 µM [inhibitor, single point] | – |
| O=C1/C(=C/c2cccc(Br)c2)SC(=S)N1/N=C/c1cc([N+](=O)[O-])ccc1O | – | inactive: 23.4% |
| CCOc1ccc(CCNC(=O)COC(=O)/C=C/c2ccc(OC)c(OC)c2)cc1OCC | inconclusive: 39.8 µM [inhibitor, partial curve] | – |
| Cc1cccc(NS(=O)(=O)c2cccc(C(=O)N3CCCC(C(F)(F)F)C3)c2)c1 (stereo not drawn) | inconclusive: 10 µM [inhibitor, partial curve] | – |
| COc1cc(C(=O)NCc2nnc(SCC(=O)NCc3ccccc3)o2)cc(OC)c1OC | – | inconclusive: -31.8% [inhibitor] [at 0.501 µM] |
| Cc1ccccc1C(=O)Nc1sc2c(c1C(=O)NCc1ccco1)CCC(C(C)(C)C)C2 (stereo not drawn) | inconclusive: 28.2 µM [inhibitor, partial curve] | – |

| Structure (SMILES) | Potency | activity change, negative = inhibition |
| --- | --- | --- |
| CCNc1ncc2nc(-c3ccccc3)c(=O)n(CCOC)c2n1 | inconclusive: 8.91 µM [inhibitor, partial curve] | – |
| CNC(=O)C1CCC(Cn2c(=O)c3sccc3n(CC(=O)NCc3ccccc3)c2=O)CC1 (stereo not drawn) | – | inactive: 10.9% |
| O=C(c1cc2nc(-c3ccccc3)cc(-c3ccccc3)n2n1)N1CCCC1 | inconclusive: 28.2 µM [inhibitor, single point] | – |
| Cc1ccc(-c2cc(-c3ccc(F)cc3)nc(N)c2C#N)o1 | inconclusive: 20 µM [inhibitor, partial curve] | – |
| CCOC(=O)[C@@H]1[C@H]2COc3ccc(Br)cc3[C@@H]2N2C(=O)N(c3ccc(C(F)(F)F)cc3)C(=O)[C@@]12C | inconclusive: 39.8 µM [inhibitor, single point] | – |
| CCC(=O)c1ccc(OCC(=O)Nc2ccccc2N2CCCCC2)cc1 | inconclusive: 1.78 µM [inhibitor, full curve, poor fit] | – |
| Cc1cccc(-n2c(=O)cc(N3CCN(c4ccc(F)cc4)CC3)[nH]c2=O)c1 | – | inactive: 1.05% |
| O=C(COC(=O)Cc1ccc(F)cc1)Nc1ccc2[nH]c(=O)[nH]c2c1 | inconclusive: 1 µM [inhibitor, full curve, poor fit] | – |
| Cc1cc(C)nc(SCc2nnc(SCC(=O)O)n2-c2ccccc2)n1 | – | inactive: 0.804% |
| CCCn1c(CC)nc([N+](=O)[O-])c1S(=O)(=O)c1ccccc1 | inconclusive: 39.8 µM [inhibitor, single point] | – |
| CCn1cc2nc(SCc3ccc(F)cc3)n(CCc3ccccc3)c(=O)c2n1 | – | inactive: -10.6% |
| Cc1cc(NC(=O)Cn2c(=O)oc3cc(S(=O)(=O)N4CCCC4)ccc32)ccc1Br | inconclusive: 22.4 µM [inhibitor, single point] | – |
| S=C1NC(c2ccccc2)N2C(=S)NC(c3ccccc3)N12 (stereo not drawn) | active: 28.2 µM | – |
| CC(C)CNC(=O)CN(c1cccc(Cl)c1)S(C)(=O)=O | – | inactive: -4.56% |
| COc1ccc(N2CC(C(=O)Nc3nnc(SCCC4OCCO4)s3)CC2=O)cc1 (stereo not drawn) | inconclusive: 7.94 µM [inhibitor, full curve] | – |
| O=C(O)COc1ccc(/C=N/NC(=O)c2cn(-c3ccccc3)nc2-c2ccccc2)cc1 | – | inactive: -5.63% |
| CCCNC(=O)c1ccc(Cn2c(=O)c3cccn3c3cccnc32)cc1 | – | inactive: 1.37% |
| CCOC(=O)C1CCN(C(=O)Nc2ccc3c(c2)nc(C)n3C)CC1 | – | inactive: 0.142% |
| CC(C)(C)NC(=O)N1CCC(C(=O)O)CC1 | – | inactive: 2.47% |
| CN1C(=O)S/C(=C\c2ccc(-n3cncn3)cc2)C1=O | inconclusive: 3.16 µM [inhibitor, full curve, poor fit] | – |
| COCC1CCCCN1C(=O)c1cccc(OC2CCN(C(=O)C3CC3)CC2)c1 (stereo not drawn) | inconclusive: 7.08 µM [inhibitor, single point] | – |

Full records as entered above.
CC(C)(C)NC(=O)N1CCC(C(=O)O)CC1 as listed: activity change, negative = inhibition: inactive: 2.47%
S=C1NC(c2ccccc2)N2C(=S)NC(c3ccccc3)N12 (stereo not drawn) as listed: Potency: active: 28.2 µM
